Laboratory results reported in patent US20220365087A1, “METHOD FOR ACQUIRING DATA FOR DISTINGUISHING PRESENCE OF CANCER CELLS AND/OR DISTINGUISHING ANTICANCER DRUG RESISTANCE, METHOD FOR ACQUIRING PREDICTION DATA, USE OF DISTINCTION MARKER IN SAME, AND DISTINGUISHING KIT” (KEIO UNIVERSITY, priority 2019, published 2022).

Assay: Surface enhanced Raman spectroscopy (SERS) of gemcitabine with Na2S3 or Na2S4
Settings: for SERS peak (456 cm^−1) yielded by Na2S3 or Na2S4: 100 μM Na2S3 or Na2S4 added to gemcitabine

SMILES	SERS peak (456 cm^−1) yielded by Na2S3 or Na2S4	major SERS peak of gemcitabine (435 cm^−1) (addition of 100 μM Na2S3 or Na2S4 to gemcitabine)
[Na+].[Na+].[S-]S[S-] [Na2S3]	disappearance of the peak	
[Na+].[Na+].[S-]SS[S-] [Na2S4]	disappearance of the peak	
Nc1ccn([C@@H]2O[C@H](CO)[C@@H](O)C2(F)F)c(=O)n1 [gemcitabine]		disappearance of the one peak
